{"source": "patent US20210145731A1", "about": "“MULTIMODAL COMPOSITIONS AND METHODS OF TREATMENT” (AQUESTIVE THERAPEUTICS, INC., priority 2019, published 2021)", "origin": "cited, not measured here", "key": {"[1]": {"test_system": "seizure threshold", "settings": "rats; Dhir and Rogawski 2018"}, "[2]": {"settings": "delivered orally"}}, "note": "Where two headings read alike, the source gives them in different places."}
{"smiles": "CN1C(=O)CN=C(c2ccccc2)c2cc(Cl)ccc21", "note": "[diazepam]", "values": [{"measurement": "plasma diazepam concentration associated with seizure threshold elevation", "setting": "[1]", "result": "~70", "unit": "ng/mL"}, {"measurement": "onset of absorption", "setting": "[2]", "result": "≤ 15", "unit": "min"}, {"measurement": "Tmax", "setting": "[2]; after a moderate fat meal", "result": "2 to 3", "unit": "h"}, {"measurement": "onset of absorption", "setting": "[2]; after a moderate fat meal", "result": "approximately 45 min"}]}
